No constants are given. Whether binding was seen depends on the method and setting. In cells and extracts the contact can be indirect. A yes stands for co-enrichment or nearness to the bait. Other partners may have been found. Where a sequence is shown, tags or fusion partners need not be part of it.

Protein sequences, listed by entry. Tags and fused reporters are not part of them.
UniProt P22314: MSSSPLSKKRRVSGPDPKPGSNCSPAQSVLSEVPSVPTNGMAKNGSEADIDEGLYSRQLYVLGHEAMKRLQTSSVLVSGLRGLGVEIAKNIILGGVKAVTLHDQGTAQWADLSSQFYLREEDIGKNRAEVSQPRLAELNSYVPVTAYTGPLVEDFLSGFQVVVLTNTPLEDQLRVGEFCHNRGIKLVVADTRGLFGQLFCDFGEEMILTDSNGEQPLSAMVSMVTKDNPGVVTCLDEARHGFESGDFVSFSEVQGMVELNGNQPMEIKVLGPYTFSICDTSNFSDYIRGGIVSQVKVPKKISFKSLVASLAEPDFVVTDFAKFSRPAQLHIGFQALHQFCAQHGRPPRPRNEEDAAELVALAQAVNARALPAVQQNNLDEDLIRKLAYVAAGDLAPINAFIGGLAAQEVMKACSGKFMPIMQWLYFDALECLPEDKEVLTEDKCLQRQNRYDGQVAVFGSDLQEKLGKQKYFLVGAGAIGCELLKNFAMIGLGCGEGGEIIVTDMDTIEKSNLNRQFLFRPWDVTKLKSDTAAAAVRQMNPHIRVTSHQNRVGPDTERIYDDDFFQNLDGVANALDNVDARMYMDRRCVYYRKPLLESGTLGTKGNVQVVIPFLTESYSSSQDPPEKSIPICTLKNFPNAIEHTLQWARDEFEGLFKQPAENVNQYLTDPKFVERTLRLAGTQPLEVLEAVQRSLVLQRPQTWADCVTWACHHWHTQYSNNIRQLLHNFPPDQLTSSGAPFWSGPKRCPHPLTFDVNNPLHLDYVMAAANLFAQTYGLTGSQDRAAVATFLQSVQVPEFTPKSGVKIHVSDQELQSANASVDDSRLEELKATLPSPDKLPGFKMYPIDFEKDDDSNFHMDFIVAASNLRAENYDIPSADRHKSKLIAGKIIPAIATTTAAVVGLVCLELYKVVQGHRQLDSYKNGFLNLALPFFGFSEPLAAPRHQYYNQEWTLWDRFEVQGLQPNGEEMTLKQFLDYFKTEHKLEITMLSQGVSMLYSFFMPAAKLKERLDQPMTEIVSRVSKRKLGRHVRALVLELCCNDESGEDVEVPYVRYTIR
UniProt P45974: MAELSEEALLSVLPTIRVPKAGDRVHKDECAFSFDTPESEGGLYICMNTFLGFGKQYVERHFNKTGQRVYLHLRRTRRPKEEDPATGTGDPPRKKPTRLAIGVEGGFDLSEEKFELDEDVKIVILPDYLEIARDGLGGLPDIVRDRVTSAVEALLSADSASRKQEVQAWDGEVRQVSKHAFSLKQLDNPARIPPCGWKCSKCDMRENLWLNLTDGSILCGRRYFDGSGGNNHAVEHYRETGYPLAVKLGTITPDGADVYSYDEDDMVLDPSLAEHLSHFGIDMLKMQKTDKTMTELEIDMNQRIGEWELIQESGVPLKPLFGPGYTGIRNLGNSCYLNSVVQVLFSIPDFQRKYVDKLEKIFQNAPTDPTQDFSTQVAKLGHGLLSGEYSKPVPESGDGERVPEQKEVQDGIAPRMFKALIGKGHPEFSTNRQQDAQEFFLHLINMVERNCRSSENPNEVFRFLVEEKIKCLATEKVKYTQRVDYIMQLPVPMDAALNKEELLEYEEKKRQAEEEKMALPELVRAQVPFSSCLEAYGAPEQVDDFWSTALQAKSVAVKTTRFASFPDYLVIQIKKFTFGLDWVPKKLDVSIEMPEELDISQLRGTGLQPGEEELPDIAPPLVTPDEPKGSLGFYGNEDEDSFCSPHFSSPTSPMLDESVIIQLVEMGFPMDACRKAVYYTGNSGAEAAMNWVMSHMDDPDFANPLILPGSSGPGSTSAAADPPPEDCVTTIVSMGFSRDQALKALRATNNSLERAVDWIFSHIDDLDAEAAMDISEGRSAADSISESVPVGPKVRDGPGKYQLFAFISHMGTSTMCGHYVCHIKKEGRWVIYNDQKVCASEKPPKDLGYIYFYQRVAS

The assay deals with T1, GST-fused DC-UbP (human) (UniProt Q8WUN7).
T1 sequence: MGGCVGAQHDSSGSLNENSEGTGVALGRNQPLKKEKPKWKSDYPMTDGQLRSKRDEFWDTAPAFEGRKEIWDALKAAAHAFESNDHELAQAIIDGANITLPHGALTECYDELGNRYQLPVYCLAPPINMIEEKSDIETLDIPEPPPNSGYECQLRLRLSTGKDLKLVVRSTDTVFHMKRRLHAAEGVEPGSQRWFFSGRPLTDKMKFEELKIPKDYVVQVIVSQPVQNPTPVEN
The assay can be described thus: affinity purification with mass spectrometry; GST-DC-UbP on glutathione-agarose, HEK 293T lysate (Buffer A: 20 mM HEPES, 150 mM NaCl, 1 mM EDTA, 10% glycerol, 1 mM DTT, 1% Triton X-100, pH 7.4), 3 h or overnight, washed with 350 mM NaCl, eluted with GSH, TCA-precipitated, silver-stained bands cut and read by LC-MS/MS; only the target purified.

Take “endogenous UbE1 (ubiquitin-activating enzyme E1) of HEK 293T cells (from UniProt P22314 1-1058)”: the binding entry is “binds”.

In the case of “endogenous USP5 (ubiquitin-specific protease 5) of HEK 293T cells (from UniProt P45974 1-858) (enzyme)”, the binding entry is on record as “binds”.

In the case of “P97/VCP of HEK 293T cells (from UniProt P55072 1-806)”, the binding entry is listed as “binds”.
